Assay results as given in PubChem BioAssay (NCATS).
The inconclusive results got no clear call from the source; some entries with a clear call stand among them for comparison. Potencies of inconclusive entries are doubtful fits and often do not repeat. The source made the active and inactive calls. The call rests on the fitted dose curve; in most records, active means well fitted cell-killing curve with a large enough effect; inconclusive means small, poorly fitted or top-dose-only effect, or effect the other way; inactive means no such curve, though single readings can be large or run the other way.

Legend:
[1] = Quantitative High-Throughput drug screen in 47 multiple myeloma cell lines against the NCATS MIPE library collection: MOLP8_DSMZ cell viability assay (AID 1918977); further: nearly all actives have a fitted effect of over 45% in size;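 on viability (% of control): 100% = DMSO-only wells and 0% = media-only wells without cells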
Method in brief: (§1)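 Cells were exposed to library compounds for 48 hours, after which ATP was measured by CellTiter-Glo. Signal was taken as median relative luminescence units.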

[2] = Quantitative High-Throughput drug screen in 47 multiple myeloma cell lines against the NCATS MIPE library collection: LP1_DSMZ cell viability assay (AID 1918982); further: nearly all actives have a fitted effect of over 35% in size
Method in brief: as §1

[3] = Quantitative High-Throughput drug screen in 47 multiple myeloma cell lines against the NCATS MIPE library collection: L363_DSMZ cell viability assay (AID 1918984); details: L363 myeloma viability, CellTiter-Glo ATP luminescence, 48 h; viability (% of control): at 45.8 µM (top of the series); further: nearly all actives have a fitted effect of over 40% in size
Method in brief: as §1

[4] = Quantitative High-Throughput drug screen in 47 multiple myeloma cell lines against the NCATS MIPE library collection: KMS34_JCRB cell viability assay (AID 1918985); details: KMS34 myeloma viability, CellTiter-Glo ATP luminescence, 48 h; viability, percent of control: at 45.8 µM; further: nearly all actives have a fitted effect of over 40% in size
Method in brief: as §1

[5] = Quantitative High-Throughput drug screen in 47 multiple myeloma cell lines against the NCATS MIPE library collection: OCIMY7_PLB cell viability assay (AID 1918987); details: OCI-MY7 myeloma viability, CellTiter-Glo ATP, 48 h; viability (% of DMSO): at 45.8 µM unless noted; further: nearly all actives have a fitted effect of over 65% in size
Method in brief: as §1

[6] = Quantitative High-Throughput drug screen in 47 multiple myeloma cell lines against the NCATS MIPE library collection: OCIMY5_PLB cell viability assay (AID 1918988); details: OCI-MY5 myeloma viability, ATP luminescence, 48 h; viability, % of control: at 45.8 µM; further: nearly all actives have a fitted effect of over 65% in size
Method in brief: as §1

[7] = Quantitative High-Throughput drug screen in 47 multiple myeloma cell lines against the NCATS MIPE library collection: OPM1_PLB cell viability assay (AID 1918989); details: CellTiter-Glo, 48 h; viability (% of control): at 45.8 µM; further: nearly all actives have a fitted effect of over 40% in size
Method in brief: as §1

[8] = Quantitative High-Throughput drug screen in 47 multiple myeloma cell lines against the NCATS MIPE library collection: SKMM1_PLB cell viability assay (AID 1919863); details: SKMM1 myeloma viability, CellTiter-Glo ATP, 48 h; viability: hits give low values; further: nearly all actives have a fitted effect of over 35% in size
Method in brief: as §1

[9] = Quantitative High-Throughput drug screen in 47 multiple myeloma cell lines against the NCATS MIPE library collection: XG6_PLB cell viability assay (AID 1919865); details: XG6 myeloma viability, CellTiter-Glo ATP luminescence, 48 h; viability (% of control): at 45.8 µM; further: nearly all actives have a fitted effect of over 40% in size;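 on viability (% of control): 100% = DMSO-only wells and 0% = media-only wells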
Method in brief: as §1

[10] = Quantitative High-Throughput drug screen in 47 multiple myeloma cell lines against the NCATS MIPE library collection: UTMC2_PLB cell viability assay (AID 1919868); details: CellTiter-Glo ATP luminescence, 48 h; viability (% of DMSO control): at 45.8 µM; further: nearly all actives have a fitted effect of over 55% in size
Method in brief: as §1

[11] = Quantitative High-Throughput drug screen in 47 multiple myeloma cell lines against the NCATS MIPE library collection: VP6_DJ cell viability assay (AID 1919867); details: ATP luminescence, 48 h; viability (% of DMSO): at 45.8 µM; further: nearly all actives have a fitted effect of over 40% in size
Method in brief: as §1

[12] = Quantitative High-Throughput drug screen in 47 multiple myeloma cell lines against the NCATS MIPE library collection: KMS28PE_JCRB cell viability assay (AID 1918983); further: nearly all actives have a fitted effect of over 35% in size
Method in brief: as §1

[13] = Quantitative High-Throughput drug screen in 47 multiple myeloma cell lines against the NCATS MIPE library collection: U266_ATCC cell viability assay (AID 1919864); further: nearly all actives have a fitted effect of over 35% in size
Method in brief: as §1

[14] = Quantitative High-Throughput drug screen in 47 multiple myeloma cell lines against the NCATS MIPE library collection: XG1_PLB cell viability assay (AID 1919866); further: nearly all actives have a fitted effect of over 35% in size
Method in brief: as §1

[15] = Quantitative High-Throughput drug screen in 47 multiple myeloma cell lines against the NCATS MIPE library collection: PE2_PLB cell viability assay (AID 1919869); details: PE2_PLB myeloma cells viability, ATP luminescence, 48 h; viability (% of control): at 45.8 µM; further: nearly all actives have a fitted effect of over 35% in size
Method in brief: as §1

[16] = Quantitative High-Throughput drug screen in 47 multiple myeloma cell lines against the NCATS MIPE library collection: PCM6_Riken cell viability assay (AID 1919870); details: CellTiter-Glo ATP, 48 h; viability (% of control): at 45.8 µM; further: nearly all actives have a fitted effect of over 30% in size
Method in brief: as §1
Potency means the concentration at half of the fitted maximal effect.

Cn1cnc([N+](=O)[O-])c1Sc1ncnc2nc[nH]c12
inconclusive: Potency [2] 26.4 µM [cytotoxic, partial curve] | Potency [3] 33.2 µM [cytotoxic, single point] | Potency [4] 29.6 µM [cytotoxic, single point] | Potency [6] 0.0148 µM [cytotoxic, full curve, poor fit] | Potency [8] 1.66 µM [cytotoxic, full curve, poor fit] | Potency [9] 5.9 µM [cytotoxic, full curve]
active: Potency [5] 11.8 µM | Potency [7] 4.69 µM | Potency [10] 5.26 µM
inactive: Potency [1]

NC1(C(=O)N[C@@H](CCO)c2ccc(Cl)cc2)CCN(c2ncnc3[nH]ccc23)CC1
active: Potency [3] 0.235 µM | Potency [4] 8.33 µM | Potency [5] 3.72 µM | Potency [6] 5.26 µM | Potency [9] 20.9 µM | Potency [11] 0.235 µM | Potency [10] 0.235 µM
inconclusive: Potency [1] 6.62 µM [cytotoxic, partial curve] | Potency [2] 4.69 µM [cytotoxic, partial curve]

C#Cc1cccc(Nc2ncnc3cc(OCCOC)c(OCCOC)cc23)c1
active: Potency [3] 1.48 µM | Potency [4] 11.8 µM | Potency [5] 0.833 µM | Potency [13] 13.2 µM
inconclusive: Potency [1] 1.48 µM [cytotoxic, full curve, poor fit] | Potency [2] 33.2 µM [cytotoxic, single point] | Potency [12] 23.5 µM [cytotoxic, partial curve, poor fit] | Potency [7] 14.8 µM [cytotoxic, partial curve] | Potency [8] 0.935 µM [cytotoxic, full curve, poor fit] | Potency [14] 0.526 µM [cytotoxic, full curve] | Potency [11] 8.33 µM [cytotoxic, full curve, poor fit] | Potency [15] 7.43 µM [cytotoxic, partial curve] | Potency [16] 2.64 µM [cytotoxic, full curve]

CC1=C(CC(=O)O)c2cc(F)ccc2C1=Cc1ccc(S(C)=O)cc1 (stereo not given)
inconclusive: Potency [1] 33.2 µM [cytotoxic, single point] | Potency [4] 2.64 µM [cytotoxic, full curve, poor fit] | Potency [5] 0.59 µM [cytotoxic, full curve, poor fit] | Potency [16] 6.62 µM [cytotoxic, full curve]
inactive: viability [8] 92.7%
active: Potency [3] 13.2 µM | Potency [9] 1.05 µM | Potency [14] 0.935 µM | Potency [10] 18.7 µM

CCc1cnn2c(NCc3ccc[n+]([O-])c3)cc(N3CCCC[C@@H]3CCO)nc12
inconclusive: viability (% of control) [9] 2.81% [cytotoxic]
active: Potency [1] 0.0118 µM | Potency [6] 0.0209 µM | Potency [13] 0.0372 µM | Potency [10] 0.0187 µM

CCN(CC)CCCC(C)Nc1ccnc2cc(Cl)ccc12 (stereo not given)
inactive: Potency [1] | Potency [12] | viability [8] 95.1%
inconclusive: Potency [5] 0.0037 µM [cytotoxic, full curve, poor fit] | Potency [6] 29.6 µM [cytotoxic, partial curve, poor fit] | Potency [7] 37.2 µM [cytotoxic, partial curve, poor fit] | Potency [13] 0.0017 µM [rising, full curve, poor fit] | Potency [10] 0.0053 µM [cytotoxic, full curve, poor fit]
active: Potency [9] 10.5 µM | Potency [14] 10.5 µM

COc1cccc2c(NCc3ccccc3)nc(-n3c(N)nc4ccccc43)nc12
active: Potency [1] 3.32 µM | Potency [2] 9.35 µM | Potency [3] 1.32 µM | Potency [5] 2.96 µM | Potency [9] 2.09 µM
inconclusive: Potency [10] 8.33 µM [cytotoxic, full curve, poor fit]

COc1ccccc1[C@H](c1cccc2ccccc12)[C@@](C)(C#N)C(=O)N1CCC(c2cccc(C(F)(F)F)c2)CC1
active: Potency [12] 4.18 µM | Potency [11] 5.26 µM | Potency [16] 5.9 µM
inconclusive: Potency [1] 9.35 µM [cytotoxic, partial curve, poor fit] | Potency [2] 1.05 µM [cytotoxic, partial curve, poor fit] | Potency [3] 2.35 µM [cytotoxic, full curve, poor fit] | Potency [4] 11.8 µM [cytotoxic, partial curve] | Potency [13] 10.5 µM [cytotoxic, partial curve, poor fit]
